# Results from one PubChem assay

The results are deposited in PubChem (AID1159506; NCATS, 2015).

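Luminescence from an EWS-FLI1 target-promoter (NR0B1) reporter, set against a CMV-promoter reporter, two days after silencing single genes in TC32 Ewing sarcoma cells.
Each siRNA was applied at 20 nM.
A z-score of the log NR0B1-over-CMV signal, less the median of siRNAs with the same seed; more negative means a stronger specific loss of the NR0B1 reporter.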

This is part of the screen; most of the strongest results are not listed here.
Sequences are the guide (antisense) strand, without overhang.

For UCAUGUAGCUCCAUGGUCG against STKLD1 the result was seed-corrected z-score -1.142. For UCAAUAUCUAGACAGUCUC against EGFL6 the result was seed-corrected z-score 0.3585. UGGUGUAUAUAUCCUUUCC against KDM4C gave seed-corrected z-score 0.3759. With UUGGUGAAGAGUGGUUGCC against B4GALT2 the assay gave seed-corrected z-score -1.068. With UUGCCGGCUAUGAAAGUAC against FMO1 the assay gave seed-corrected z-score 0.1029. Result for AAUGAUUCCAGAGACGUGG against POLH was seed-corrected z-score -0.4735. With AACCGUUUCUUACAAGUUG against PRDM10 the assay gave seed-corrected z-score 0.3522. UUUACUUCCUUAUAUACUC against ATP5F1 gave seed-corrected z-score -0.2964.

With UGUGGUCAUGACCAGAUCC against C11orf44 the assay gave seed-corrected z-score -0.02877. For AUUCGUUUCUGGAACCUGC against PPP1R15B the result was seed-corrected z-score 0.2428. With AAAAGACUUCUCUUUGUUC against FAM65C the assay gave seed-corrected z-score -0.2508. UUUGGUUCUUGCUCUUUGC against ONECUT2 read seed-corrected z-score 0.4631. UCACGUACAGCGCAUCACC against KLHL30 gave seed-corrected z-score -0.7876. Result for UACUCCUUAAACUUAAAGC against PIP4K2B was seed-corrected z-score 0.1902. AAACCUUUCUGUAUCUUUC against DFNA5 read seed-corrected z-score 0.9841. With UGAGAGAAGAGGUCUCGUC against ART1 the assay gave seed-corrected z-score 0.5681.

UUCUCUAGCAGGUAGGCCU against RIMS4 read seed-corrected z-score 0.2226. UCAUGAACACGUUCUGCCU against LUC7L2 read seed-corrected z-score -0.4466. UGUAAAGUUACGACGAAUG against MIPEP read seed-corrected z-score -0.2241. UCAUCUGUAGCAAAGAGCU against ACAD8 read seed-corrected z-score -0.2374. For UUAUGCAAGAUAAAAGUAG against ZNF264 the result was seed-corrected z-score -0.5629. For UAGGAUCCAAAGUAACACC against C5 the result was seed-corrected z-score 0.04532. UCAAUCAAAAUAUCAAACC against TTLL2 read seed-corrected z-score 0.2016. For UCAUCUAUGCCUCUGCUGC against CDHR4 the result was seed-corrected z-score -0.08699.

With UAAAUACUCAGCGAACUCC against LOC649238 the assay gave seed-corrected z-score 0.05183. UGCGUUCAAGUCAUCCUCC against CFD gave seed-corrected z-score 0.4586. UUGCUGUUGAAAUCUCCUC against CHMP4B gave seed-corrected z-score 0.5663. AGUUCGAUCACCUUCUUGC against METTL21B read seed-corrected z-score -0.2247. With UCGAGGUCCAUGUUCAGAC against RALGAPA1 the assay gave seed-corrected z-score -0.3998. With AGCAUCUUCAUGAUUUCUG against LOC285484 the assay gave seed-corrected z-score -0.9276. Result for UAUGGAUUGACACUCCUCC against SCG5 was seed-corrected z-score 1.232. UCACUAAUAAUAUGGGUUC against CUL4A gave seed-corrected z-score 1.242.

UUUGAUGUUAGGGAGGCAG against PRSS46 read seed-corrected z-score 0.1585. For UUAACUUUUAAGCAACUCC against CASC15 the result was seed-corrected z-score 0.1993. UUAGCCUCAAACUUGGUCA against NAT9 read seed-corrected z-score -1.134. Result for UACUCUUCACAGCUGAUCC against RGS4 was seed-corrected z-score 0.9275. For UAGGUACUCAAAGAUCUCC against BRPF1 the result was seed-corrected z-score -0.8517. UUGUUCAUAAAAGUGAAGC against CYTL1 read seed-corrected z-score 0.3138. Result for AAAUAAAACCGCUUCUUUC against IGHMBP2 was seed-corrected z-score 0.08695. UUUCGUAUUGCCUAUCUCG against ENTPD7 gave seed-corrected z-score 0.09582.

UUGGGAACCAGAUAUCCUC against WDR87 read seed-corrected z-score -0.4522. Result for UUCUUUCGCACCUAGUCUC against LOC728868 was seed-corrected z-score 0.05915. Result for UUUCUUGAUGGUGAUUCGG against NOP10 was seed-corrected z-score 0.2056.

3 of the entries, repeated:

strand	target gene	seed-corrected z-score
UGUGGUCAUGACCAGAUCC	C11orf44	-0.02877
UUGGGAACCAGAUAUCCUC	WDR87	-0.4522
UCAAUAUCUAGACAGUCUC	EGFL6	0.3585